The whole screen tested about 330,000 compounds, of which about 7,700 (2.3%) were called active. This list was built around the results that the source calls inconclusive (neither active nor inactive); the mix of calls is not that of the screen. Calls follow the shape of the dose curve; as a rule, active = well fitted inhibition curve with a large enough effect; inconclusive = small, poorly fitted or top-dose-only effect, or effect the other way; inactive = flat fitted curve, though single readings scatter. Potencies of inconclusive entries are doubtful fits and often do not repeat.
Experiment: qHTS screen for small molecules that inhibit ELG1-dependent DNA repair in human embryonic kidney (HEK293T) cells expressing luciferase-tagged ELG1; also: nearly all actives have a fitted effect of over 55% in size
Conditions: HEK293T ELG1-luciferase reporter, luminescence, 16 h, DNA damage induced by 5-fluorouridine; series mostly up to 46.1 µM
Method in brief: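 HEK293T cells expressing luciferase-tagged ELG1 (2,000/well) received 5-Fluorouridine plus compound or DMSO for 16 hr at 37 °C. Luciferase was read by ONE-Glo luminescence after 30 min at room temperature.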
Potency is read from the fitted curve at half-maximal effect.

SMILES	Potency
Cc1nc(Oc2ccc(S(=O)(=O)N3CCOCC3)cc2Cl)c2c3c(sc2n1)CCCC3	inconclusive: 25.9 µM [inhibitor, partial curve]
Cc1c(C(=O)c2ccccc2)oc2ccc3ccccc3c12	inconclusive: 4.11 µM [activator, partial curve]
CC(C)(CN1CCc2ccccc2C1)NS(=O)(=O)c1ccccc1	inconclusive: 20.6 µM [inhibitor, single point]
O=C(CSC1=NCCS1)c1ccc(Cl)cc1	inconclusive: 29.1 µM [activator, single point]
CCN(CC)C(=O)c1c(C)[nH]c(=S)c(C#N)c1-c1ccco1	inactive
N#Cc1c(/N=C/N2CCCC2)oc(-c2ccccc2)c1-c1ccccc1	inconclusive: 25.9 µM [inhibitor, single point]
Cc1nonc1OCCN1CCN(c2ccccc2[N+](=O)[O-])CC1	inactive
CC(C)CNC(=S)N1CCC(c2nc(-c3ccc(F)cc3)no2)CC1	inconclusive: 7.3 µM [inhibitor, partial curve]
CN(C)CCNc1nc2sc3c(c2c(=O)n1Cc1ccccc1)CCCCC3	inactive
Cc1ccc(NC(=S)NCc2ccc3c(c2)OCO3)cc1C	inconclusive: 29.1 µM [activator, partial curve, poor fit]
CCCn1nc(NC(=O)c2ccncc2)c2cc3ccccc3nc21	inconclusive: 20.6 µM [inhibitor, partial curve]
Cc1cc(SCc2ccc(Br)cc2)nc(=O)[nH]1	inconclusive: 20.6 µM [activator, single point]
COC(=O)c1sc(N2C(=O)C(O)=C(C(=O)c3ccc(C)o3)C2c2ccc([N+](=O)[O-])cc2)nc1C (centres undefined)	inconclusive: 9.2 µM [activator, partial curve]
O=C(NNC(=O)c1ccc(-c2ccccc2)cc1)Nc1ccc(F)cc1F	inconclusive: 20.6 µM [activator, partial curve]
Cc1csc(=O)n1CCC(=O)OCC(=O)NCc1ccc(F)cc1	inactive
COc1ccc(-c2cn3cccc(C)c3n2)cc1F	inconclusive: 2.59 µM [activator, full curve]
Cc1cc2c(cc1C)NC(c1ccccn1)C1=C(CC(C)(C)CC1=O)N2 (centres undefined)	inconclusive: 18.4 µM [activator, single point]
Cn1c(=O)n(C)c2cc([N+](=O)[O-])c(N3CCN(C(=O)c4cccc(Cl)c4)CC3)cc21	inconclusive: 23.1 µM [inhibitor, partial curve]
CCOC(=O)c1ccc(-c2ccc(C(=O)Nc3cccnc3)o2)cc1	inconclusive: 29.1 µM [inhibitor, single point]

Another view of some results above.

| SMILES | Potency |
| --- | --- |
| COc1ccc(-c2cn3cccc(C)c3n2)cc1F | inconclusive: 2.59 µM [activator, full curve] |
| Cc1cc2c(cc1C)NC(c1ccccn1)C1=C(CC(C)(C)CC1=O)N2 (centres undefined) | inconclusive: 18.4 µM [activator, single point] |
